From patent US8809618B2, “Transgenic mouse for screening and for studies of the pharmacodynamics and pharmacokinetics of ligands acting on the oestrogen receptor and its intracellular receptors, and method for the preparation thereof” (T.O.P. (Transgenic Operative Products) S.R.L., priority 2000, dated 2014)
For at least one compound, name, drawing or mass did not settle the structure.

System: ER reporter in primary bone marrow cells
Experiment: Luciferase expression in primary bone marrow cells from transgenic mice
Format: cell-based, mouse
Details: 16 hours, E2 0.01-10 nM, ICI and T 100 nM, Prog and Dex 10 nM

SMILES: C[C@@H]1C[C@H]2[C@@H]3CCC4=CC(=O)C=C[C@]4(C)[C@@]3(F)[C@@H](O)C[C@]2(C)[C@@]1(O)C(=O)CO [dexamethasone]
- luciferase accumulation, ligand alone: did not have any effect
